# Results reported in PubChem BioAssay AID1347076 (National Center for Advancing Translational Sciences (NCATS), 2019).
# Hit rate of the full screen: of about 400,000 compounds, about 13,000 (3.2%) were called active. This list was built around the results that the source calls inconclusive (neither active nor inactive); the mix of calls is not that of the screen. Calls come from the whole dose curve; as a rule, active = well fitted cell-killing curve with a large enough effect; inconclusive = small, poorly fitted or top-dose-only effect, or effect the other way; inactive = flat fitted curve, though single readings scatter. Potencies beside an inconclusive call are fits to weak or partial responses and may not hold up.
# Assay: qHTS assay for MDR1-selective chemotherapeutics: Primary screen using the drug-selected MDR subline cells KB-V1; note: nearly all actives have a fitted effect of over 60% in size
# Conditions: KB-V1 MDR cells viability, CellTiter-Glo, 72 h; activity change, negative = cytotoxicity: at 46.1 µM (top of the series)
# In short: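 Cytotoxicity toward P-gp-expressing KB-V1 cells was determined as loss of CellTiter-Glo luminescence after 72 h at 37 degrees C. Compounds were tested in quantitative HTS format across a concentration range, with curves fitted to normalized data.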
# % is set by controls: 0 for no effect and ±100 for the full control effect; potency is the fitted concentration of half-maximal effect.
SMILES,Potency,"activity change, negative = cytotoxicity"
CCc1ccc2oc(-c3cccc(NC(=O)COc4ccccc4Cl)c3)nc2c1,"inconclusive: 16.4 µM [rising, single point]",
Cn1nc([N+](=O)[O-])nc1Sc1cccc2cccnc12,"inconclusive: 14.6 µM [cytotoxic, partial curve]",
COc1ccccc1OCC(=O)N/N=C1\CCCCc2ccccc21,"inconclusive: 16.4 µM [cytotoxic, single point]",
CCN(CC)C(=O)c1ccc2c(c1)N(Cc1ccccc1F)C(=O)c1ccccc1S2=O (centres undefined),,inactive: -15.5%
COc1ccc(NC(=O)CN(C)C(=O)c2ccc(OCc3ccccc3)c(OC)c2)cc1,"inconclusive: 20.6 µM [cytotoxic, single point]",
Fc1ccc(C(c2nnnn2Cc2cccs2)N2CCN(c3ccccc3)CC2)cc1 (centres undefined),"inconclusive: 23.1 µM [cytotoxic, single point]",
C[C@H]1c2cccc(O)c2C(O)=C2C(=O)[C@]3(O)C(O)=C(C(N)=O)C(=O)[C@@H](N(C)C)C3[C@@H](O)C21 (some centres undefined),,inactive: 1.18%
CC(=O)NCCNC(=O)C1(C)Cc2c(-c3cccc(C(N)=O)c3)ccnc2O1 (centres undefined),,inactive: -7.1%
O=C(CNC(=O)c1ccc(Cl)cc1Cl)OC1CCCCC1=O (centres undefined),,inactive: 0.927%
COc1ccc(NS(=O)(=O)c2cc(NC(=O)c3ccncc3)ccc2N2CCOCC2)cc1,"inconclusive: 23.1 µM [cytotoxic, partial curve, poor fit]",
CC(C)n1nc(C(=O)NCCCN2CCCC2=O)c2ccccc2c1=O,"inconclusive: 14.6 µM [cytotoxic, single point]",
Cc1ccc(CNC(=O)CSc2ccc(-c3ccccn3)nn2)cc1,"inconclusive: 23.1 µM [cytotoxic, single point]",
NS(=O)(=O)c1ccc(NC(=S)Nc2nn(Cc3ccc(Cl)cc3Cl)cc2Cl)cc1,,inactive: -3.82%
Cc1cccc(C(=O)n2nc(-c3cccnc3)nc2NCc2ccc(F)cc2)c1,,inactive: 13.4%
COc1ccccc1/C=C/C=N/NC(=O)c1ccccn1,,inactive: 6.55%
O=C(Nc1cccc2cccnc12)c1ccc2c(c1)OCCO2,active: 13 µM,
O=C(c1ccccc1)n1c2ccccc2c(=O)n1-c1ccccc1CCl,"inconclusive: 32.6 µM [cytotoxic, single point]",
CC12CCC(=O)N1C(C(=O)N1CCN(S(=O)(=O)c3cccc(C(F)(F)F)c3)CC1)CS2 (centres undefined),"inconclusive: 13 µM [cytotoxic, partial curve]",
c1ccc(COc2ccc(CNCc3cccnc3)cc2)cc1,"inconclusive: 16.4 µM [cytotoxic, partial curve]",
COc1ccccc1NS(=O)(=O)c1cc(NC(=S)Nc2cc(C)cc(C)c2)ccc1Cl,active: 14.6 µM,
O=C(NC(=S)N(CCCCO)C1CCCCC1)c1sc2ccccc2c1Cl,"inconclusive: 32.6 µM [cytotoxic, single point]",
COc1ccc(NS(=O)(=O)c2cccc(C(=O)NNC(=O)CNC(=O)c3ccc(C)cc3)c2)cc1,"inconclusive: 10.3 µM [rising, partial curve]",
CCOC(=O)c1c(C)[nH]c(C)c1S(=O)(=O)N(C)CC(=O)NCc1ccc(C)cc1,,inconclusive: 35.6%

SMILES,Potency,"activity change, negative = cytotoxicity"
Fc1ccc(Oc2nccc(-c3ccc(Cl)cc3)n2)cc1,"inconclusive: 10.3 µM [rising, partial curve, poor fit]",
COc1ccc(CCN2C(=O)CN(Cc3ccccc3)CC2=O)cc1OC,active: 6.51 µM,
COc1ccc(Nc2nnc(SCC(=O)NC3CCCC3)s2)cc1,"inconclusive: 29.1 µM [cytotoxic, single point]",
CCC1CN(C(=O)NCc2ccc(F)cc2)c2cc(Cl)ccc2O1 (centres undefined),"inconclusive: 6.51 µM [cytotoxic, partial curve]",
O=C(CSc1ncn[nH]1)Nc1ccccc1Sc1ccc(Cl)cc1,,inactive: -5.88%
CC(C)Cc1[nH]c(=O)c(C#N)c2c1COC(C)(C)C2,,inactive: 7.94%
COc1cccc(NC(=O)CN(C)C(=O)c2ccccc2CCc2ccccc2)c1,"inconclusive: 18.4 µM [cytotoxic, single point]",
O=C(NC1CCCC1)C(c1cccs1)N(Cc1ccco1)C(=O)Cn1nnc(-c2cccs2)n1 (centres undefined),"inconclusive: 9.2 µM [cytotoxic, partial curve]",
CCOc1cc(/C=N/NC(=O)c2cc(C)n(-c3ccc(F)cc3)c2C)ccc1O,,inactive: -27.4%
O=C(CCNS(=O)(=O)c1cccc2nsnc12)N1CCc2ccccc21,"inconclusive: 16.4 µM [cytotoxic, partial curve]",
COCCn1c(SCC(=O)NC(=O)NCc2ccccc2)nc2ccccc21,"inconclusive: 20.6 µM [cytotoxic, partial curve]",
CCCn1c(SCc2ccon2)nc2ccccc2c1=O,"inconclusive: 20.6 µM [cytotoxic, partial curve, poor fit]",
COc1ccc(S(=O)(=O)NCCc2csc(-c3cccc(F)c3)n2)cc1OC,,inactive: 11.1%
Cc1c(C(=O)NCc2cccnc2)oc2ccc(S(=O)(=O)N3CCCCCC3)cc12,active: 5.17 µM,
Cc1ccc(S(=O)(=O)N2[C@H](CC(=O)c3ccc(F)cc3)OC[C@@H]2C)cc1,"inconclusive: 20.6 µM [cytotoxic, single point]",
CCCNC(=O)c1ccc(COc2cccc3ccccc23)o1,"inconclusive: 14.6 µM [cytotoxic, partial curve, poor fit]",
COc1cc(OC)c(NC(=O)CC(C)S(=O)(=O)c2ccc3c(c2)NC(=O)CO3)cc1Cl (centres undefined),"inconclusive: 25.9 µM [rising, single point]",
CC(C)c1ccc(NC(=S)N2CCCC(c3ccc(F)cc3)=N2)cc1,,inactive: -1.87%
Cc1cc(COc2ccccc2OCc2cc(C)no2)on1,active: 11.6 µM,
COCCCn1c(SCc2cccc(OC)c2)nc2cc(OC)c(OC)cc2c1=N,"inconclusive: 20.6 µM [cytotoxic, partial curve, poor fit]",
O=C(CCS(=O)(=O)Cc1ccccc1F)N1CCc2ccccc2C1,,inactive: -9.57%
CC(=O)Nc1cccc(Nc2cnccn2)c1,,inactive: 16.2%
COC(=O)Cn1c(O)c(N=NC(=O)CNC(=O)c2ccncc2)c2ccccc21,"inconclusive: 29.1 µM [rising, partial curve, poor fit]",

SMILES,Potency,"activity change, negative = cytotoxicity"
O=C(Cc1nnc(NC(=O)Nc2ccccc2)s1)Nc1ccccc1,,inactive: 0.788%
CS(=O)(=O)Nc1ccc(-c2nc3ccccc3s2)cc1,"inconclusive: 23.1 µM [cytotoxic, single point]",
Cc1cc(S(=O)(=O)N2CCCC(C)C2)ccc1-n1cnnn1 (centres undefined),"inconclusive: 10.3 µM [cytotoxic, partial curve, poor fit]",
CN(CC(=O)NCCc1ccc(F)cc1)Cc1cccc(Cl)c1,"inconclusive: 14.6 µM [cytotoxic, partial curve, poor fit]",
CCOC(=O)c1ccc(N/C(=N/S(=O)(=O)c2ccccc2)c2ccccc2)cc1,"inconclusive: 23.1 µM [cytotoxic, partial curve]",
COc1ccc(C(=O)Nc2ccnn2C2CCN(CCC(C)c3ccc(C)o3)CC2)cc1 (centres undefined),"inconclusive: 9.2 µM [cytotoxic, partial curve]",
Fc1ccc(CNCc2ccccc2C(F)(F)F)cc1,,inactive: 0%
CC(NS(=O)(=O)c1ccc(Br)cc1)C(=O)NCc1ccco1 (centres undefined),,inactive: -9.66%
NC(CSC(c1ccccc1)(c1ccccc1)c1ccc2c(c1)OCO2)C(=O)O (centres undefined),,inactive: -7.39%
Cc1c(C(=O)NCCSCc2ccc(Cl)cc2Cl)cccc1[N+](=O)[O-],active: 25.9 µM,
O=S(=O)(c1ccc(NC(=S)NC23CC4CC(CC(C4)C2)C3)cc1)N1CCCCC1,"inconclusive: 20.6 µM [cytotoxic, single point]",
CCOc1ccccc1NC(=O)CSc1ccc(-c2ccco2)nn1,"inconclusive: 11.6 µM [cytotoxic, partial curve]",
CN(Cc1ccccc1)CC(O)CN(C)Cc1ccccc1,"inconclusive: 0.82 µM [rising, full curve, poor fit]",
COc1ccc(N(Cc2cc3ccc(C)cc3[nH]c2=O)S(=O)(=O)c2ccccc2)cc1,"inconclusive: 13 µM [cytotoxic, partial curve, poor fit]",
CCn1cc(C(=O)NCCCN2CCC(C)CC2)c(=O)c2cc(S(=O)(=O)N3CCOCC3)ccc21,"inconclusive: 14.6 µM [rising, partial curve, poor fit]",
CCCC(=O)Nc1nc(-c2ccc3c(c2)CCN3S(C)(=O)=O)cs1,"inconclusive: 20.6 µM [cytotoxic, single point]",
O=C(COc1cccc2cccnc12)Nc1ccccc1N1CCOCC1,"inconclusive: 29.1 µM [cytotoxic, single point]",
O=C(CSCc1nc2ccccc2[nH]1)N1CCN(c2cccc(Cl)c2)CC1,active: 20.6 µM,
O=C(Nc1ccc(OCC(F)(F)C(F)F)c(C(F)(F)F)c1)c1ccccc1O,"inconclusive: 29.1 µM [cytotoxic, single point]",
COc1ccc(C(O)c2nc(-c3ccc(N(C)C)cc3)cs2)cc1 (centres undefined),"inconclusive: 16.4 µM [cytotoxic, single point]",
CCc1ccc(-c2cc(C)no2)cc1S(=O)(=O)N1CCOc2ccccc21,active: 20.6 µM,
C=CCn1cc(C(=O)NCc2ccc3c(c2)OCO3)c(=O)c2cc(S(=O)(=O)N(CC)CC)ccc21,"inconclusive: 2.59 µM [cytotoxic, full curve, poor fit]",
Cc1ccc(NC(=O)Nc2c(C)n(C)n(-c3ccccc3)c2=O)c(Cl)c1,"inconclusive: 1.46 µM [rising, partial curve, poor fit]",

# Complete entries, quoted from the list:
# CN(Cc1ccccc1)CC(O)CN(C)Cc1ccccc1 in the list: Potency: inconclusive: 0.82 µM [rising, full curve, poor fit]
# COCCCn1c(SCc2cccc(OC)c2)nc2cc(OC)c(OC)cc2c1=N in the list: Potency: inconclusive: 20.6 µM [cytotoxic, partial curve, poor fit]
